These are yes or no findings as the source states them, for the method shown. Some entries that bind do so weakly or less than the wild type.
Molecular target: T1, truncated Bid labelled with Alexa647 (tBid-Alexa647) (murine), P70444
T1 chain: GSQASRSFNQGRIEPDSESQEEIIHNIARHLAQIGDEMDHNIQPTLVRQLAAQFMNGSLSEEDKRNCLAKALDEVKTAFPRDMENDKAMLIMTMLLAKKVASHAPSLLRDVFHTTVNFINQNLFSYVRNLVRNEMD
Assay: single particle fluorescence intensity (stoichiometry) analysis of confocal images; same bilayer and images as a1; event intensity normalised by the monomer brightness measured by FCS and binned into putative monomers, dimers, etc.; both purified
Conditions: remark: other sources report otherwise

- binding: binds
B1: truncated Bid labelled with Alexa647 (tBid-Alexa647), P70444 60-195 (domain or fragment)
chain: T1 chain
modifications: here or on the partner: Alexa647 bound by maleimide chemistry to the cysteine residue at position 126; Alexa647 bound by maleimide chemistry to the cysteine residue at position 126
